In paper PMC12286604:
No constants are given. Whether binding was seen depends on the method and setting. In cells and extracts the contact can be indirect. Some entries that bind do so weakly or less than the wild type.

By UniProt entry, the sequences of proteins in these tests, tags left out.
UniProt Q07820: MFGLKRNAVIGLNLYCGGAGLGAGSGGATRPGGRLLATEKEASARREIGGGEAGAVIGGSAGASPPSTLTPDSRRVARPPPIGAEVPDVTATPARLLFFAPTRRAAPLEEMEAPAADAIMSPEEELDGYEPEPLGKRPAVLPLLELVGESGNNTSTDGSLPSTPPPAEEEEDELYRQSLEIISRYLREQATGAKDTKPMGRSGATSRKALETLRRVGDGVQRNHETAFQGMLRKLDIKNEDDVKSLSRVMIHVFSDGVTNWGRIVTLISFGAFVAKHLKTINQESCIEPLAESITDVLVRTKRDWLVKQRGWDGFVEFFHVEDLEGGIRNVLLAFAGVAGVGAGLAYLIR
UniProt Q07812: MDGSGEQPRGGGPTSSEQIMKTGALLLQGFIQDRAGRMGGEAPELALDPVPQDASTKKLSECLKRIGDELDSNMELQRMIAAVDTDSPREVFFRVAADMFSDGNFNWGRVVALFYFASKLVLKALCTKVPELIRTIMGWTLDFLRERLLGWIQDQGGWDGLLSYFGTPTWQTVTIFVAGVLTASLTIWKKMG
UniProt Q07817: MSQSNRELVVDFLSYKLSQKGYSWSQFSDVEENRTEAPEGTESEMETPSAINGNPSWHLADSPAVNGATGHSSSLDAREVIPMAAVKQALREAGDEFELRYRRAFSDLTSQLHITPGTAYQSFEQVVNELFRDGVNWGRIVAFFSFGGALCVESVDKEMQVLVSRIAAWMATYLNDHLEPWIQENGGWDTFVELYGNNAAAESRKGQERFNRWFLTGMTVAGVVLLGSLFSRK
UniProt P10415: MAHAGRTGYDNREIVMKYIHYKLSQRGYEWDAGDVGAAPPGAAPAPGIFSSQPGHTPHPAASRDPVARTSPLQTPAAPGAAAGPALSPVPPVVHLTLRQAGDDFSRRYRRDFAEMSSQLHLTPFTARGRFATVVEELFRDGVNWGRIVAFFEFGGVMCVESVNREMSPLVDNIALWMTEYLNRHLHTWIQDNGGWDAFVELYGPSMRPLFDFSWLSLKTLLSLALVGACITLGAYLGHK

Assays:
MCL-1, transfected = MCL-1, transfected (UniProt Q07820); assay: co-IP; exogenous co-IP: anti-FLAG IP from whole-cell lysate of 293T cells transfected with plasmids for both partners, western blot; which partner bore FLAG is not given
BAX, transfected = BAX, transfected (UniProt Q07812); assay: as above
BCL-W, transfected = biological target: T1, BCL-W, transfected (UniProt Q92843); assay: as above
T1 sequence: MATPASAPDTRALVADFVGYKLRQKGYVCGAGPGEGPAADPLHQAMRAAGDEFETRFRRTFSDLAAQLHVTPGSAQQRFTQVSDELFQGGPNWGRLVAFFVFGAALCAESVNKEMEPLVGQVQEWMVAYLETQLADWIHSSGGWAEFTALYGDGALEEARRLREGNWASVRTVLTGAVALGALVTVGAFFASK

BAK, transfected = biological target: T2, BAK, transfected (UniProt Q16611); assay: as above
T2 sequence: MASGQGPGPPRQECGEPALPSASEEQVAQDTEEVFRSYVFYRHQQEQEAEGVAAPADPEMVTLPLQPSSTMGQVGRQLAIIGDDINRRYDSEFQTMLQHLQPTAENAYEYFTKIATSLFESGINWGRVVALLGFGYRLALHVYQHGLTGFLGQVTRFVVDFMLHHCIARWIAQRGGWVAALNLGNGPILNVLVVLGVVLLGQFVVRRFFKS

BAD, transfected = biological target: T3, BAD, transfected (UniProt Q92934); assay: as above
T3 sequence: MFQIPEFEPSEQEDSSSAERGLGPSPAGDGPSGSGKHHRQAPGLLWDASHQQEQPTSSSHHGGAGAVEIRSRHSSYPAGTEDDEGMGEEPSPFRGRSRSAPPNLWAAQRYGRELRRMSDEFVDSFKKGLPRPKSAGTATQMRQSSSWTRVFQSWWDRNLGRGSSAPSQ

BCL-XL, transfected = BCL-XL, transfected (UniProt Q07817); assay: as above
BCL-2, transfected = BCL-2, transfected (UniProt P10415); assay: as above
[1] = biological target: T4, NOXA, endogenous (human (endogenous in 293T)), Q13794; assay: co-IP; endogenous co-IP: IgG or anti-NOXA, anti-MCL-1, anti-BCL-2, anti-BCL-XL or anti-BAD antibodies, 293T whole-cell lysate, western blot; details: remark: other sources report otherwise
T4 chain: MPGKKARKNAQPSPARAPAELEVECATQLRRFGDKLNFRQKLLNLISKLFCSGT

[2] = biological target: T4, NOXA, endogenous (human (endogenous in …)); assay: co-IP; endogenous co-IP with IgG or anti-NOXA from 293T cells treated 12 hr with the C-terminal cell-penetrating peptide of NOXA or the R8 peptide; details: remark: other sources report otherwise
[3] = biological target: BCL-XL, endogenous (human (endogenous in 293T)) (UniProt Q07817); assay: co-IP; endogenous co-IP: IgG or anti-NOXA, anti-MCL-1, anti-BCL-2, anti-BCL-XL or anti-BAD antibodies, 293T whole-cell lysate, western blot
[4] = biological target: BCL-2, endogenous (human (endogenous in 293T)) (UniProt P10415); assay: as above
[5] = biological target: T5, BAD, endogenous (human (endogenous in 293T)) (UniProt Q92934); assay: as above
T5 sequence: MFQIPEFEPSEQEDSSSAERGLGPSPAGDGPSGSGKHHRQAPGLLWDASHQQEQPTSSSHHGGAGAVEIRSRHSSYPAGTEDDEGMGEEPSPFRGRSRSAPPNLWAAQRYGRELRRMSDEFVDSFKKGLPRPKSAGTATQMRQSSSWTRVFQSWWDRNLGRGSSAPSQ

[6] = biological target: MCL-1, endogenous (human (endogenous in 293T)) (UniProt Q07820); assay: as above
[7] = biological target: T6, NOXA, wild type, transfected, Q13794; assay: co-IP; exogenous co-IP: anti-FLAG IP from whole-cell lysate of 293T cells transfected with plasmids for both partners, western blot; which partner bore FLAG is not given; details: remark: other sources report otherwise
T6 chain: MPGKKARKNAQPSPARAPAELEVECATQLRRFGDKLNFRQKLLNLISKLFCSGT

[8] = biological target: T6, NOXA, wild type, transfected, Q13794; assay: co-IP; WSB2-NOXA complex co-immunoprecipitated by anti-FLAG antibody from transfected 293T cells, then the bound complex incubated 12 hr with C-terminal NOXA peptide (200 and 400 μg/ml) or scramble peptide; bound material by western blot; details: remark: other sources report otherwise
[9] = biological target: T7, WSB2 (WD repeat and SOCS box-containing protein 2), wild type, transfected (UniProt Q9NYS7); assay: co-IP; competition: synthetic C-terminal NOXA peptide (200 and 400 μg/ml, 12 hr) added to the anti-FLAG-bound WSB2-NOXA complex from transfected 293T cells; only the binder purified
T7 sequence: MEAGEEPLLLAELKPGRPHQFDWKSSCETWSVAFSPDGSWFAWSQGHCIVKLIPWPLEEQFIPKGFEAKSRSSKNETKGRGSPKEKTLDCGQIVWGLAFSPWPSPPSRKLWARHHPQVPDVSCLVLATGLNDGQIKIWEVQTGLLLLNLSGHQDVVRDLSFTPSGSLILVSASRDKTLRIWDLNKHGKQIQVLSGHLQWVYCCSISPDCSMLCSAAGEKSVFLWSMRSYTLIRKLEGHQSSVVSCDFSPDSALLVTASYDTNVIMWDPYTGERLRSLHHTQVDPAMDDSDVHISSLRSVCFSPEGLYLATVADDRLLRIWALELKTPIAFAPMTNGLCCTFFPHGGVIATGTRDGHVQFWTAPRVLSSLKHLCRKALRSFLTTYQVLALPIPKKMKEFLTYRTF

[10] = biological target: T8, WSB2, endogenous (human (endogenous in 293T)) (UniProt Q9NYS7); assay: co-IP; competition in cells: 293T cells treated 12 hr with the synthetic C-terminal cell-penetrating peptide of NOXA or R8 peptide, then IP with IgG or anti-NOXA; only the binder purified
T8 sequence: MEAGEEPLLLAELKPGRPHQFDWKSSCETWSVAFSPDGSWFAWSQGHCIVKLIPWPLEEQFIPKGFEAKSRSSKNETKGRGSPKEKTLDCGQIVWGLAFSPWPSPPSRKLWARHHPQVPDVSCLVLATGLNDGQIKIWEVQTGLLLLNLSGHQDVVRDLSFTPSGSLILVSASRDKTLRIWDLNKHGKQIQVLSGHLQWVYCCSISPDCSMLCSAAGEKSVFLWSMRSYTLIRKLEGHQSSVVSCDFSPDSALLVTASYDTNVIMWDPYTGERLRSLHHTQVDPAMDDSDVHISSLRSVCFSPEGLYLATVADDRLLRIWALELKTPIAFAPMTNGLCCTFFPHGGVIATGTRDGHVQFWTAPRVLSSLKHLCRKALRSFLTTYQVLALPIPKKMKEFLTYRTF

[11] = biological target: T9, WSB2 (WD repeat and SOCS box-containing protein 2), wild type, transfected, Q9NYS7; assay: co-IP; semi-endogenous co-IP: anti-FLAG IP from 293T cells transfected with WSB2, endogenous partners detected by western blot; details: remark: other sources report otherwise
T9 chain: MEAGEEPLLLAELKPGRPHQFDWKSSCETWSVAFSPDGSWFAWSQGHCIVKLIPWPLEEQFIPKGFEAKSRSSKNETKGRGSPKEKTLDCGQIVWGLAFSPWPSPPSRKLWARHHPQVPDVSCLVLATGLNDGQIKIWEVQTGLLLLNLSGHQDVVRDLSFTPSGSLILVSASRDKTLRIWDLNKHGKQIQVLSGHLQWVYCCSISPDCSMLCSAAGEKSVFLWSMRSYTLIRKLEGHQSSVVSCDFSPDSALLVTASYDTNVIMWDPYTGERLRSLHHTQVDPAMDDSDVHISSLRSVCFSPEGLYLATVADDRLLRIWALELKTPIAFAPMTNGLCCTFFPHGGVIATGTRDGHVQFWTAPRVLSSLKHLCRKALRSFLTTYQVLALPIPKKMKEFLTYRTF

[12] = biological target: T7, WSB2 (WD repeat and SOCS box-containing protein 2), wild type, transfected; assay: as above

B1: WSB2 (WD repeat and SOCS box-containing protein 2), wild type, transfected (protein, UniProt Q9NYS7 1-404)
chain: MEAGEEPLLLAELKPGRPHQFDWKSSCETWSVAFSPDGSWFAWSQGHCIVKLIPWPLEEQFIPKGFEAKSRSSKNETKGRGSPKEKTLDCGQIVWGLAFSPWPSPPSRKLWARHHPQVPDVSCLVLATGLNDGQIKIWEVQTGLLLLNLSGHQDVVRDLSFTPSGSLILVSASRDKTLRIWDLNKHGKQIQVLSGHLQWVYCCSISPDCSMLCSAAGEKSVFLWSMRSYTLIRKLEGHQSSVVSCDFSPDSALLVTASYDTNVIMWDPYTGERLRSLHHTQVDPAMDDSDVHISSLRSVCFSPEGLYLATVADDRLLRIWALELKTPIAFAPMTNGLCCTFFPHGGVIATGTRDGHVQFWTAPRVLSSLKHLCRKALRSFLTTYQVLALPIPKKMKEFLTYRTF
Q: How did the binding (MCL-1, transfected) turn out when B1 was run?
A: binds

Q: What about the binding (BAX, transfected) of the same binder?
A: no binding

Q: What about the binding (BCL-W, transfected) of the same binder?
A: no binding

Q: What about the binding (BAK, transfected) of the same binder?
A: no binding

Q: What about the binding (BAD, transfected) of the same binder?
A: binds

Q: What about the binding (BCL-XL, transfected) of the same binder?
A: binds

Q: What about the binding (BCL-2, transfected) of the same binder?
A: binds

B2: WSB2, endogenous, Q9NYS7 1-404 (protein)
chain: MEAGEEPLLLAELKPGRPHQFDWKSSCETWSVAFSPDGSWFAWSQGHCIVKLIPWPLEEQFIPKGFEAKSRSSKNETKGRGSPKEKTLDCGQIVWGLAFSPWPSPPSRKLWARHHPQVPDVSCLVLATGLNDGQIKIWEVQTGLLLLNLSGHQDVVRDLSFTPSGSLILVSASRDKTLRIWDLNKHGKQIQVLSGHLQWVYCCSISPDCSMLCSAAGEKSVFLWSMRSYTLIRKLEGHQSSVVSCDFSPDSALLVTASYDTNVIMWDPYTGERLRSLHHTQVDPAMDDSDVHISSLRSVCFSPEGLYLATVADDRLLRIWALELKTPIAFAPMTNGLCCTFFPHGGVIATGTRDGHVQFWTAPRVLSSLKHLCRKALRSFLTTYQVLALPIPKKMKEFLTYRTF
Q: For B2, which binding [1] is on record?
A: binds

Q: What about the binding [2] of the same binder?
A: binds

B3: WSB2, endogenous (protein, UniProt Q9NYS7 1-404)
chain: MEAGEEPLLLAELKPGRPHQFDWKSSCETWSVAFSPDGSWFAWSQGHCIVKLIPWPLEEQFIPKGFEAKSRSSKNETKGRGSPKEKTLDCGQIVWGLAFSPWPSPPSRKLWARHHPQVPDVSCLVLATGLNDGQIKIWEVQTGLLLLNLSGHQDVVRDLSFTPSGSLILVSASRDKTLRIWDLNKHGKQIQVLSGHLQWVYCCSISPDCSMLCSAAGEKSVFLWSMRSYTLIRKLEGHQSSVVSCDFSPDSALLVTASYDTNVIMWDPYTGERLRSLHHTQVDPAMDDSDVHISSLRSVCFSPEGLYLATVADDRLLRIWALELKTPIAFAPMTNGLCCTFFPHGGVIATGTRDGHVQFWTAPRVLSSLKHLCRKALRSFLTTYQVLALPIPKKMKEFLTYRTF
Q: Which binding [3] does the source give for B3 here?
A: binds

Q: What about the binding [4] of the same binder?
A: binds

Q: What about the binding [5] of the same binder?
A: binds

Q: And the binding [6]?
A: binds

B4: WSB2 (WD repeat and SOCS box-containing protein 2), wild type, transfected, Q9NYS7 1-404 (protein)
chain: MEAGEEPLLLAELKPGRPHQFDWKSSCETWSVAFSPDGSWFAWSQGHCIVKLIPWPLEEQFIPKGFEAKSRSSKNETKGRGSPKEKTLDCGQIVWGLAFSPWPSPPSRKLWARHHPQVPDVSCLVLATGLNDGQIKIWEVQTGLLLLNLSGHQDVVRDLSFTPSGSLILVSASRDKTLRIWDLNKHGKQIQVLSGHLQWVYCCSISPDCSMLCSAAGEKSVFLWSMRSYTLIRKLEGHQSSVVSCDFSPDSALLVTASYDTNVIMWDPYTGERLRSLHHTQVDPAMDDSDVHISSLRSVCFSPEGLYLATVADDRLLRIWALELKTPIAFAPMTNGLCCTFFPHGGVIATGTRDGHVQFWTAPRVLSSLKHLCRKALRSFLTTYQVLALPIPKKMKEFLTYRTF
Q: B4 was tested. Which binding [7] did it give?
A: binds

Q: And the binding [8]?
A: binds

Q: Which binding [9] does the source give for QKLLNLISKLFCSGT (peptide, UniProt Q13794 40-54) [C-terminal NOXA peptide (40-54 aa)] here?
A: binds

Q: How did the binding [10] turn out when RRRRRRRRQKLLNLISKLFCSGT (peptide, UniProt Q13794 40-54) [C-terminal cell-penetrating peptide of NOXA (C-terminal NOXA peptide connected to poly-arginine R8)] was run?
A: binds

B5: NOXA, endogenous, Q13794 1-54 (protein)
chain: MPGKKARKNAQPSPARAPAELEVECATQLRRFGDKLNFRQKLLNLISKLFCSGT
Q: How did the binding [11] turn out when B5 was run?
A: binds

B6: BAD, endogenous (protein, UniProt Q92934 1-168)
chain: MFQIPEFEPSEQEDSSSAERGLGPSPAGDGPSGSGKHHRQAPGLLWDASHQQEQPTSSSHHGGAGAVEIRSRHSSYPAGTEDDEGMGEEPSPFRGRSRSAPPNLWAAQRYGRELRRMSDEFVDSFKKGLPRPKSAGTATQMRQSSSWTRVFQSWWDRNLGRGSSAPSQ
Q: For B6, which binding [12] is on record?
A: binds
